Source: PMC10216445
These are yes or no findings as the source states them, for the method shown.

Chains of the proteins cited; added tags and fusions are not shown.
UniProt P20789: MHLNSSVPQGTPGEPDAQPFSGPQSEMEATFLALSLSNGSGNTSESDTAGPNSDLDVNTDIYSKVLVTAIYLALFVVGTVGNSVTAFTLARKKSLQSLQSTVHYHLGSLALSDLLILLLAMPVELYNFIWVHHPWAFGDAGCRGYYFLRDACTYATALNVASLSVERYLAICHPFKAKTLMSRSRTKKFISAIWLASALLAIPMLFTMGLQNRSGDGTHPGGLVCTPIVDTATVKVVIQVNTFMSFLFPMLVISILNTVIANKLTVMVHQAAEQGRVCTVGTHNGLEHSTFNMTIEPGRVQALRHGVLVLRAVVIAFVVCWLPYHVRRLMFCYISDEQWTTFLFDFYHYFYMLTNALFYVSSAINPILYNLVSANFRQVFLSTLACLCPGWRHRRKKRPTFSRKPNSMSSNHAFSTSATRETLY

Target: rat Neurotensin Receptor Type 1, C-terminal HRV3C-eGFP-His6 fusion (Rattus norvegicus) (UniProt P20789)
Assay: SEC; fluorescence-detection SEC (FSEC), SRT-C SEC-300 HPLC column, 0.5 mL/min; sample from baculovirus-infected ExpiSf cells at 27 and 32 °C, solubilised in DDM, partially purified on Ni-NTA; the discussion says the same of Sf9 and High Five cells (DDM and DDM/CHS, no ligands added); both purified

rat Neurotensin Receptor Type 1, C-terminal HRV3C-eGFP-His6 fusion (from UniProt P20789 1-424)
binding: no binding
